Record: PubChem BioAssay AID1224828 (NIAID, 2016)
Assay: 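Find genes required for NF-kappaB p65 moving into the nucleus after LPS in mouse macrophages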 (primary screen). System: mouse RAW264.7 G9 macrophage reporter cells (GFP-p65, Tnf promoter-mCherry). Reagent: siRNA pool against mouse genes, 100 nM. Duration: 2 days siRNA transfection, then 40 min LPS before fixation. Treatment: LPS (Salmonella minnesota R595) at 10 ng/ml. Read-out: 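Imaged p65 nuclear translocation ratio, normalised to the plate median, converted to robust z-scores and averaged across two replicates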. Direction: p65 translocation robust z-score: higher = more nuclear NF-kappaB p65 after LPS than the plate median; nuclear/cytoplasmic p65 ratio: higher = more nuclear NF-kappaB p65. Call rule: 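Called active when z exceeds 3.3 or falls under -1.56 (median of Tlr4 controls), giving activity score of at least 50; no calls for control wells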. Meaning of the calls: active = hit (p65 shift raised or lowered); inactive = no clear change.
Shown is an unselected part of about 17,000 deposited reagents. Of all reagents, 762 (4.5%) were called active. 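Active calls include both raised and lowered p65 entry, mostly lowered; wells with fewer than 50 cells lack a z-score.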 Raw values are not corrected between plates. Entries without a mark were called inactive. Some reagents were tested in more than one well and are listed for each.

Target gene | p65 translocation robust z-score | nuclear/cytoplasmic p65 ratio, rep 1 | nuclear/cytoplasmic p65 ratio, rep 2 | low cell count flag
Fam13a | -0.21 | 1.56 | 1.49 | enough cells to score
Dpys | 0.76 | 1.69 | 1.38 | enough cells to score
Slitrk5 | – | 1.03 | 1.19 | fewer than 50 cells per well; well left out of scoring
Zeb2 | -1.25 | 1.38 | 1.29 | enough cells to score
Btrc | -0.76 | 1.56 | 1.45 | enough cells to score
Il12rb1 | 0.02 | 1.47 | 1.35 | enough cells to score
Tmc6 | -0.25 | 1.61 | 1.36 | enough cells to score
Epgn | 0.2 | 1.64 | 1.47 | enough cells to score
Crygn | 0.6 | 1.66 | 1.89 | enough cells to score
Ulk4 | -1.14 | 1.27 | 1.33 | enough cells to score
Clec2i | -0.33 | 1.48 | 1.27 | enough cells to score
Or4b13 | -0.68 | 1.46 | 1.38 | enough cells to score
Rnf126 | -2.13 (active) | 1.09 | 1.01 | enough cells to score
AI854703 | -1.51 | 1.31 | 1.52 | enough cells to score
Gpr6 | 0.94 | 1.42 | 1.72 | enough cells to score
Cish | -1.54 | 1.28 | 1.18 | enough cells to score
Dnm2 | -0.29 | 1.42 | 1.09 | enough cells to score
Trappc14 | 0.22 | 1.34 | 1.88 | enough cells to score
Avpr1b | -0.31 | 1.75 | 1.25 | enough cells to score
Avpr1b | 0.27 | 1.57 | 1.59 | enough cells to score
Pdcd11 | – | 1.12 | 1.01 | fewer than 50 cells per well; well left out of scoring
Avil | 1.81 | 1.47 | 1.84 | enough cells to score
Drc2 | -0.99 | 1.21 | 1.36 | enough cells to score
Sf3a3 | -0.94 | 1.41 | 1.43 | enough cells to score
Rnf138rt1 | – | 1.41 | 1.37 | fewer than 50 cells per well; well left out of scoring
Atp1a3 | -1.78 (active) | 1.26 | 1.34 | enough cells to score
Vps33a | -0.55 | 1.32 | 1.16 | enough cells to score
Arhgef38 | 0.53 | 1.73 | 1.66 | enough cells to score
Hapln1 | 0.4 | 1.79 | 1.61 | enough cells to score
Myo1f | 0.68 | 1.91 | 1.68 | enough cells to score
Crb3 | -0.1 | 1.62 | 1.71 | enough cells to score
Adam1b | 0.56 | 1.71 | 1.75 | enough cells to score
Itga6 | – | 1.49 | 1.48 | fewer than 50 cells per well; well left out of scoring
Dpysl5 | -0.36 | 1.41 | 1.3 | enough cells to score
Wdr64 | – | 1.11 | 1.11 | fewer than 50 cells per well; well left out of scoring
Eps8 | 0.13 | 1.44 | 1.42 | enough cells to score
Gne | -0.33 | 1.62 | 1.35 | enough cells to score
Snx10 | -1.18 | 1.39 | 1.1 | enough cells to score
Map3k11 | – | 1.78 | 1.41 | fewer than 50 cells per well; well left out of scoring
Gpr141b | 0.66 | 1.28 | 1.62 | enough cells to score
Map3k21 | -0.76 | 1.7 | 1.29 | enough cells to score
Arhgdia | -0.26 | 1.59 | 1.57 | enough cells to score
Sall2 | -2.6 (active) | 1.07 | 1.02 | enough cells to score
Coa6 | – | 1.22 | 1.29 | fewer than 50 cells per well; well left out of scoring
Il1b | 0.17 | 1.52 | 1.38 | enough cells to score
Gpr179 | – | 1.17 | 1.55 | fewer than 50 cells per well; well left out of scoring
Mtor | – | 1.45 | 1.48 | fewer than 50 cells per well; well left out of scoring
Nktr | -0.53 | 1.35 | 1.37 | enough cells to score
Zfp768 | -1.86 (active) | 1.36 | 1.53 | enough cells to score
Pitpna | -0.21 | 1.46 | 1.38 | enough cells to score
Cgnl1 | – | 1.12 | 1.26 | fewer than 50 cells per well; well left out of scoring
Pnck | – | 1.37 | 1.08 | fewer than 50 cells per well; well left out of scoring
Oit3 | -0.78 | 1.59 | 1.42 | enough cells to score
Cmc1 | -3.04 (active) | 0.971 | 0.963 | enough cells to score
Skp1 | -1.47 | 1.35 | 1.33 | enough cells to score
Tff2 | – | 1.32 | 1.18 | fewer than 50 cells per well; well left out of scoring
Map3k7cl | 0.21 | 1.48 | 1.25 | enough cells to score
Tmem170 | -1.38 | 1.24 | 1.35 | enough cells to score
Rps27 | -1.26 | 1.19 | 1.13 | enough cells to score

In a second layout: results already given
| Target gene | p65 translocation robust z-score | nuclear/cytoplasmic p65 ratio, rep 1 | nuclear/cytoplasmic p65 ratio, rep 2 | low cell count flag |
| --- | --- | --- | --- | --- |
| Pitpna | -0.21 | 1.46 | 1.38 | enough cells to score |
| Cgnl1 | – | 1.12 | 1.26 | fewer than 50 cells per well; well left out of scoring |
| Pnck | – | 1.37 | 1.08 | fewer than 50 cells per well; well left out of scoring |
| Oit3 | -0.78 | 1.59 | 1.42 | enough cells to score |
| Cmc1 | -3.04 (active) | 0.971 | 0.963 | enough cells to score |
